Measured values taken from doi:10.1101/2022.11.16.516824.
Results are given in words; binding and its absence hold for the method and conditions named. Binding seen in cells or lysates may run through a third protein. A yes stands for co-enrichment or nearness to the bait. Other partners may have been found. For some of these results: No binding means not detected with the bait. For some of these results: Where a sequence is shown, tags or fusion partners need not be part of it.

Sequences of proteins named here, by UniProt entry; tags and fusion partners are left off. Residues count along the entry.
UniProt P31041, residues 20-218: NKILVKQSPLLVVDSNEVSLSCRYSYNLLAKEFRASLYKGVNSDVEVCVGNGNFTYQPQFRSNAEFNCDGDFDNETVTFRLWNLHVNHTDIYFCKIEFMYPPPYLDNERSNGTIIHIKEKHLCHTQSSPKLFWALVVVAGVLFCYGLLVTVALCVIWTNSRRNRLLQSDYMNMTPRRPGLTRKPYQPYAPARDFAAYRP
UniProt Q8BHD8: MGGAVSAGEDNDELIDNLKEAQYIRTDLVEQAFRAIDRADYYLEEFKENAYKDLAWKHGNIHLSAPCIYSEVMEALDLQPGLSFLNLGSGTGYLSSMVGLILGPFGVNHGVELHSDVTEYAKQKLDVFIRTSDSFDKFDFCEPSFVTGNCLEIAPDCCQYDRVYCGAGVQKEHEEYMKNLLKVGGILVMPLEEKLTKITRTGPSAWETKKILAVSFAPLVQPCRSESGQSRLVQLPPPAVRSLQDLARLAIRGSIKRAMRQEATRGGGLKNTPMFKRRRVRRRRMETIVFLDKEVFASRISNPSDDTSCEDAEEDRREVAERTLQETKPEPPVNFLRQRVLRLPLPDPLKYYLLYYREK
UniProt Q9CQW9: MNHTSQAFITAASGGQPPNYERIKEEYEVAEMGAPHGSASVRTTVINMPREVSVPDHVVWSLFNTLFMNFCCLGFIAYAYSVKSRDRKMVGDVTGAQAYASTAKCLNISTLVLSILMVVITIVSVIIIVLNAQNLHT

T1: Cul5 with a C terminal HA-tag (mouse), Q9D5V5
T1 chain: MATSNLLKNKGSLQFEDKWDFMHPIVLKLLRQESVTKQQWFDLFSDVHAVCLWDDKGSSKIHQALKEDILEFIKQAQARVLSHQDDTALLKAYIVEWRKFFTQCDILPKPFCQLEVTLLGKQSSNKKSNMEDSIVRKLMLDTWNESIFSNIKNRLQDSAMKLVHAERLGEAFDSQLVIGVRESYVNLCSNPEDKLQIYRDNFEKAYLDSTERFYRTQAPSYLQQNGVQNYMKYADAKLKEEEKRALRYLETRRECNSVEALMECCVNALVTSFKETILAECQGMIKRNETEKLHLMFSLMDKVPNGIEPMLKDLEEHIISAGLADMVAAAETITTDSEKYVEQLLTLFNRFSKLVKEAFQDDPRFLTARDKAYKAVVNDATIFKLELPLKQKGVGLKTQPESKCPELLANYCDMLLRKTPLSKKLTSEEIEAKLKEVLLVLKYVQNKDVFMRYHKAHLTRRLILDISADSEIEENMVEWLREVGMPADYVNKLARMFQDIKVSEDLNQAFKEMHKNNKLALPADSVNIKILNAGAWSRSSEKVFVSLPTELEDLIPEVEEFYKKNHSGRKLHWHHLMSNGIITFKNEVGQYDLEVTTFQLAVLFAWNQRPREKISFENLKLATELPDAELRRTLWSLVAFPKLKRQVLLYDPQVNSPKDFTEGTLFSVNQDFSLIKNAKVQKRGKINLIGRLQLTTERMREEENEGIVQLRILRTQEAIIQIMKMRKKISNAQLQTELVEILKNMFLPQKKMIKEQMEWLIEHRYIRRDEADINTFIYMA


target: Cul5 with a C terminal HA-tag (mouse) (UniProt Q9D5V5); assay: affinity purification with mass spectrometry; conditions: not given

Molecule | binding
Cd28 (from UniProt P31041 20-218) (receptor) | binds
Pcmtd2 (from UniProt Q8BHD8 1-359) | binds
Ifitm3 (from UniProt Q9CQW9 1-137) | binds
Skap1 (protein, UniProt Q3UUV5 1-355) MQAVALPEEICWLLEDTEDFLAEGLQNENLSPGAQDQRAHILRGFQQIKSRYCWDFQPQGGDLGQDGSDDNLSGTHGPPLTSEASFWSDYQDEGIEDILRGAQELDSVIKQGYLEKKSKDHSFFGSEWQKRWCVISRGLFLYYANEKSKQPKGTFLIKGYSVRMAPHLRKDSKKESCFELISQDRRSYEFTASSPAEARDWVDQISFLLKDLSSLTIPFEEEEEEEEEEEKEEEEMYNDVDGFDSPRSGSQCRAMALPEPTEKEEDIYEVLPDDDDLEEDTCGAHRRRVDYADYYQGLWDCHGDQPDELSFQRGDLIRILSKEYNMYGWWVGELNSVIGIVPKDYLTTAFEMEGI | binds
IL2 receptor β subunit (Il2rb) (receptor, UniProt P16297 27-539) AVKNCSHLECFYNSRANVSCMWSHEEALNVTTCHVHAKSNLRHWNKTCELTLVRQASWACNLILGSFPESQSLTSVDLLDINVVCWEEKGWRRVKTCDFHPFDNLRLVAPHSLQVLHIDTQRCNISWKVSQVSHYIEPYLEFEARRRLLGHSWEDASVLSLKQRQQWLFLEMLIPSTSYEVQVRVKAQRNNTGTWSPWSQPLTFRTRPADPMKEILPMSWLRYLLLVLGCFSGFFSCVYILVKCRYLGPWLKTVLKCHIPDPSEFFSQLSSQHGGDLQKWLSSPVPLSFFSPSGPAPEISPLEVLDGDSKAVQLLLLQKDSAPLPSPSGHSQASCFTNQGYFFFHLPNALEIESCQVYFTYDPCVEEEVEEDGSRLPEGSPHPPLLPLAGEQDDYCAFPPRDDLLLFSPSLSTPNTAYGGSRAPEERSPLSLHEGLPSLASRDLMGLQRPLERMPEGDGEGLSANSSGEQASVPEGNLHGQDQDRGQGPILTLNTDAYLSLQELQAQDSVHLI | binds

Target: T1, Cul5 with a C terminal HA-tag (mouse), …
Assay: affinity purification with mass spectrometry
Conditions: remark: other sources report otherwise

Molecule | binding
Asb6, Q91ZU1 1-418 (protein) MPFLHGFRRIIFEYQPLVDAILGALGIQDLERQEPLDDSASSEESRILVLTELLEQKAHSPFYQEGVSNALLKMAELGLTRAAAVLLQSGANLNFEDPVTYYTALHIAVLRNQPDMVELLVRHGADINRRDRIHESSPLDLASEEPERLPCLQRLLDLGADVNAADKNGKTALLHALASSDGVQIHNTENIRLLLEGGADVKATTKDGDTVFTCIIFLLGETVCGDKEEAPMINRFCFQVTQLLLAHGADPSECPAHESLTHICLKSFKLHFPLLCFLLESGAAYNCSLHGASCWSGFNLVFERLCSHPGCAEDDSHIELLHKAETVLDLMVTSSQRLQLPENLNIHPVGSLAGKIQALHASLRQLESYPPPLKHLCRVSIRLCLRPWPVDTKVKALPLPDRLKWYLLSAHSDTQDTC | no binding
Cish, Q62225 1-257 (protein) MVLCVQGSCPLLAVEQIGRRPLWAQSLELPGPAMQPLPTGAFPEEVTEETPVQAENEPKVLDPEGDLLCIAKTFSYLRESGWYWGSITASEARQHLQKMPEGTFLVRDSTHPSYLFTLSVKTTRGPTNVRIEYADSSFRLDSNCLSRPRILAFPDVVSLVQHYVASCAADTRSDSPDPAPTPALPMSKQDAPSDSVLPIPVATAVHLKLVQPFVRRSSARSLQHLCRLVINRLVADVDCLPLPRRMADYLRQYPFQL | no binding
